Results are given in words; binding and its absence hold for the method and conditions named. Binding seen in cells or lysates may run through a third protein. Some entries that bind do so weakly or less than the wild type.

Amino acid sequences for entries named in this document (tags omitted). Residues count along the entry.
UniProt P24593, residues 21-272: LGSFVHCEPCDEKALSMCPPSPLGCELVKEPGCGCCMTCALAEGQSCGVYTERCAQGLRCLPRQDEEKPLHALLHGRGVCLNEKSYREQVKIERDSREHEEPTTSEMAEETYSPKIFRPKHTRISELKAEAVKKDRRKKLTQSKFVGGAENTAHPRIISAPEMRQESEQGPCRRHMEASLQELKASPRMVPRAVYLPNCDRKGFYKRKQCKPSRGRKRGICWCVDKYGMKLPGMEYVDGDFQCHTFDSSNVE
UniProt P07355: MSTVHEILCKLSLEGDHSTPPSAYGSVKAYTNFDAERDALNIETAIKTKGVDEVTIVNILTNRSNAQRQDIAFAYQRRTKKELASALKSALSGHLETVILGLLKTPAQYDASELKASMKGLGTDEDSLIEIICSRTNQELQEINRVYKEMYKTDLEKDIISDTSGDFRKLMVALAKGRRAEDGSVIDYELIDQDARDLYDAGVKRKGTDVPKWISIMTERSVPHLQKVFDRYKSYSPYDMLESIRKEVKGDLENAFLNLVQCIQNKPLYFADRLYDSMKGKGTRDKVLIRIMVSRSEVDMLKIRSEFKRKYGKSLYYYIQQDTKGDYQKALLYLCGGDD
UniProt O00206, residues 24-839: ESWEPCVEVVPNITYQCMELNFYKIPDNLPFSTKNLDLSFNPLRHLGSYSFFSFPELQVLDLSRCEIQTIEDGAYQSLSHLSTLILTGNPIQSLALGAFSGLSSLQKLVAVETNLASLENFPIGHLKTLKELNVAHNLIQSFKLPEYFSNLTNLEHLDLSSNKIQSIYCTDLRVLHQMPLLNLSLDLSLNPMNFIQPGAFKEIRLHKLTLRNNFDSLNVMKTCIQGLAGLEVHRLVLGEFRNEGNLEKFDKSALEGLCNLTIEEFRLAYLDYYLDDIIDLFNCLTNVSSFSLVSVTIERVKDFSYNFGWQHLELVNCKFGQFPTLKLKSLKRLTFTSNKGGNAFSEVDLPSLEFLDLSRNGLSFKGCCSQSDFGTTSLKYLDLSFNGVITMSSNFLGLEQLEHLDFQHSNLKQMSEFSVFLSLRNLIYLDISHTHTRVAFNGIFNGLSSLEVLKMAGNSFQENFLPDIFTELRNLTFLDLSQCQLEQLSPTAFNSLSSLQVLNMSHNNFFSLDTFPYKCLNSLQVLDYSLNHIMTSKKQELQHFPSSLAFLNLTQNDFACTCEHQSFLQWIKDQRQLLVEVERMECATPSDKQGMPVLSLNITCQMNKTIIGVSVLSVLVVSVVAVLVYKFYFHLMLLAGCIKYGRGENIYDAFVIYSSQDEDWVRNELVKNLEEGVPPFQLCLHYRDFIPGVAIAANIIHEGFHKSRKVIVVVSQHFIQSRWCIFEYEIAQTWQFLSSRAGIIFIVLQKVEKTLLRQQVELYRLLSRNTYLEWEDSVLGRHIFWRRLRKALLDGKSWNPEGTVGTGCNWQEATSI

Assay [1] addresses IGFBP5 (human (endogenous in THP-1)) (UniProt P24593). The assay can be described thus: co-IP; normal THP-1 cell lysate (NP-40 buffer); IP with anti-IGFBP5 or anti-ANXA2 antibody overnight at 4°C, protein A/G magnetic beads, western blot.
In assay [2] the target is ANXA2 (human (endogenous in THP-1)) (UniProt P07355). The assay is described as above.
The target is the same in assay [3]. The assay can be described thus: co-IP; ANXA2-IP from THP-1 lysates, TLR4 by western blot; normal or IGFBP5-silenced cells; untreated, LPS (500 ng/ml) or LPS + IGFBP5 (50 ng/ml) for 6 h.

Take ANXA2 (from UniProt P07355 1-339): the binding result in assay [1] is listed as “binds”. With IGFBP5 (from UniProt P24593 21-272), the binding result in assay [2] is listed as “binds”. Regarding “TLR4 (from UniProt O00206 24-839) (receptor)”, the binding result in assay [3] is “binds”.

Source of the values: article PMC11757107.
